{
  "source": "patent US20150268248A1",
  "about": "“CELL SELECTIVE PROTEOME LABELING” (MEMORIAL SLOAN-KETTERING CANCER CENTER, priority 2012, published 2015)",
  "test_system": "DDC-expressing 3T3 cells",
  "experiment": "Co-culture differential proteome labeling (LC-MS/MS, species-specific peptides)",
  "assay_type": "cell-based",
  "details": "co-culture with lyr-MDA-MB-231 in DAP (L) and D-Lysine (H), after three passages; mouse-specific peptides",
  "note": "The amount applied is not stated for every result.",
  "data": [
    {"smiles": "N[C@H](CCC[C@H](N)C(=O)O)C(=O)O", "note": "[DAP, meso-2,6-diaminopimelate]", "values": [
      {"measurement": "log 2 H/L", "value": "~−0.4", "unit": "log 2 H/L"}
    ]}
  ]
}
